# Source: the supplement of paper PMC9135407
# Values joined by “and” are separate entries in the source; they are usually repeats but may differ in a detail not shown here. Equal entries are not always repeated. Structures can show the parent of a compound that is named as a salt. ± gives the standard deviation of the averaged measurements. This is one part of the list. Part of the spread comes from offsets between plates or batches.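 Primary human stellate myofibroblasts activated in culture; inactivation shown by regained lipid droplets. Readout: fraction of Hoechst-counted cells exceeding a per-plate Bodipy threshold, duplicate wells, each plate with DMSO negative and nortriptyline positive controls. Hits: control-normalized score beyond the plate's top-tenth-percentile nortriptyline wells, or among its three best wells. Final well concentrations unstated.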
# Tested on: primary human hepatic stellate cells (donor 1)
# Assay: percent Bodipy-positive cells; higher = more lipid droplet accumulation
# Conditions: 48 h
# [1] = library stock concentration: 10 mM
# [2] = library stock concentration: 3.33 mM
# [3] = library stock concentration: 1 mM
compound,measurement,setting,value
CC1CCC(C(C)C)C(O)C1 (stereo not drawn) [Menthol(-)],percent Bodipy-positive cells,[1],35.7 ± 3.9%
O=C(O)CC[C@H]1CC[C@@](c2cc(F)ccc2F)(S(=O)(=O)c2ccc(Cl)cc2)CC1,percent Bodipy-positive cells,[2],5.16 ± 1.4%
same,percent Bodipy-positive cells,[1],6.91 ± 0.15%
"C/C=C1\NC(=O)[C@H]2CSSCC/C=C/[C@H](CC(=O)N[C@H](C(C)C)C(=O)N2)OC(=O)[C@H](C(C)C)NC1=O [Romidepsin (FK228, Depsipeptide)]",percent Bodipy-positive cells,[2],94.2 ± 4.4%
same,percent Bodipy-positive cells,[1],100%
COc1ccc2c(c1)N(C[C@H](C)CN(C)C)c1ccccc1S2 [Methotrimeprazine maleat salt],percent Bodipy-positive cells,,52.1 ± 2.1%
COC(=O)c1ccccc1O [Methyl salicylate],percent Bodipy-positive cells,library stock concentration: 13.1 mM,10.9 ± 0.79%
CCCN(CCC)C(=O)C(CCC(=O)O)NC(=O)c1ccccc1 (stereo unspecified) [Proglumide],percent Bodipy-positive cells,,16.3 ± 2%
same,percent Bodipy-positive cells,library stock concentration: 6 mM,20.3 ± 3.2%
same,percent Bodipy-positive cells,[1],30.8% and 45%
CCCCC/C=C\C/C=C\C/C=C\C/C=C\CCCC(=O)OCc1ccsc1,percent Bodipy-positive cells,[3],8.96 ± 2%
Nc1nc(N)c2nc(-c3cccc(O)c3)cnc2n1,percent Bodipy-positive cells,[2],5.67 ± 1.4%
same,percent Bodipy-positive cells,[1],10.2 ± 0.55%
CCN1C(=O)NC(c2ccccc2)C1=O (stereo unspecified) [Ethotoin],percent Bodipy-positive cells,,10.6 ± 0.53%
CCCCC/C=C/C/C=C/C/C=C/C/C=C/CCCC(=O)Oc1ccc2ccc(=O)oc2c1 [7-hydroxycoumarinyl Arachidonate],percent Bodipy-positive cells,[3],6.65 ± 2.7%
COc1ccccc1N1CCN(CC(O)COc2cccc3ccccc23)CC1 (stereo unspecified),percent Bodipy-positive cells,[1],37.1 ± 5.3%
COc1ccccc1N1CCN(CC(O)COc2cccc3ccccc23)CC1 (stereo unspecified) [Naftopidil],percent Bodipy-positive cells,[2],8.668 ± 0.0014%
same,percent Bodipy-positive cells,[1],22 ± 1.1%
COc1ccccc1N1CCN(CC(O)COc2cccc3ccccc23)CC1 (stereo unspecified) [Naftopidil dihydrochloride],percent Bodipy-positive cells,,13.9 ± 0.73%
same,percent Bodipy-positive cells,[1],77.6 ± 2.7%
COc1ccccc1N1CCN(CC(O)COc2cccc3ccccc23)CC1 (stereo unspecified) [Naftopidil hydrochloride],percent Bodipy-positive cells,[1],29.6 ± 0.95%
COc1ccccc1N1CCN(CC(O)COc2cccc3ccccc23)CC1 (stereo unspecified) [Naftopidil DiHCl],percent Bodipy-positive cells,[2],7.13 ± 0.57%
same,percent Bodipy-positive cells,[1],34.6 ± 8.1%
COc1ccccc1N1CCN(CC(O)COc2cccc3ccccc23)CC1 (stereo unspecified) [Naftopidil 2HCl],percent Bodipy-positive cells,library stock concentration: 5.1 mM,11.21 ± 0.037%
Cc1nnc(-c2ccc3occ(-c4ccc([S+](C)[O-])cc4)c3c2)o1 (stereo unspecified),percent Bodipy-positive cells,[1],13.5 ± 0.22%
CN1CCC(=C2c3ccccc3CC(=O)c3sccc32)CC1 [Ketotifen Fumarate],percent Bodipy-positive cells,[2],29.9 ± 11%
same,percent Bodipy-positive cells,[1],55.2 ± 3.1%
CN1CCC(=C2c3ccccc3CC(=O)c3sccc32)CC1,percent Bodipy-positive cells,[1],63.01 ± 0.44%
CN1CCC(=C2c3ccccc3CC(=O)c3sccc32)CC1 [Ketotifen fumarate],percent Bodipy-positive cells,,66.425 ± 0.023%
same,percent Bodipy-positive cells,library stock concentration: 4.7 mM,56.8 ± 12%
same,percent Bodipy-positive cells,[1],65.5% and 50.6%
CC(C)(C)C(=O)OCOP(=O)(COCCn1cnc2c(N)ncnc21)OCOC(=O)C(C)(C)C [Adefovir Dipivoxil],percent Bodipy-positive cells,[2],22.2 ± 8.7%
same,percent Bodipy-positive cells,[1],38.2 ± 3.3%
O=C1Cc2c([nH]c3ccc([N+](=O)[O-])cc23)-c2ccccc2N1 [Alsterpaullone],percent Bodipy-positive cells,[2],21.6 ± 1.1%
CC[C@@H](CC[C@@H](C)[C@H]1CC[C@H]2[C@@H]3CCC4C[C@@H](O)CC[C@]4(C)[C@H]3CC[C@]12C)C(C)C (stereo partly drawn) [Beta-sistosterol],percent Bodipy-positive cells,,11.8 ± 0.68%
"CN1CCN(c2ccc3nc(-c4c(N)c5c(F)cccc5[nH]c4=O)[nH]c3c2)CC1 [Dovitinib (TKI-258, CHIR-258)]",percent Bodipy-positive cells,[2],95.5 ± 1.4%
same,percent Bodipy-positive cells,[1],95.1 ± 1.9%
CCN(CC)CCOCCOC(=O)C(CC)(CC)c1ccccc1.O=C(O)CC(O)(CC(=O)O)C(=O)O,percent Bodipy-positive cells,[1],93.2 ± 1.7%
O=S(=O)(c1cccc2c(I)cccc12)N1CCCNCC1,percent Bodipy-positive cells,library stock concentration: 80 uM,8.74 ± 1.3%
same,percent Bodipy-positive cells,library stock concentration: 400 uM,13 ± 4.2%
same,percent Bodipy-positive cells,library stock concentration: 2 mM,30.4 ± 3.5%
"O=S(=O)(c1cccc2c(I)cccc12)N1CCCNCC1 [ML-7, Hydrochloride]",percent Bodipy-positive cells,[2],37.7 ± 0.67%
COc1cc(OC)c(C(=O)CCCN2CCCC2)c(OC)c1,percent Bodipy-positive cells,[1],16.2 ± 5.8%
COc1cc(OC)c(C(=O)CCCN2CCCC2)c(OC)c1 [Buflomedil HCl],percent Bodipy-positive cells,[2],6.23 ± 1.6%
same,percent Bodipy-positive cells,[1],9.89 ± 1.6%
COc1cc(OC)c(C(=O)CCCN2CCCC2)c(OC)c1 [Buflomedil hydrochloride],percent Bodipy-positive cells,,30 ± 2.8%
CC(=O)NCCc1c[nH]c2ccc(O)cc12 [N-Acetyl-5-hydroxytryptamine],percent Bodipy-positive cells,[1],49.9 ± 5.8%
CC(C)Oc1ccc(Cc2ccc(NC3=NCCN3)cc2)cc1,percent Bodipy-positive cells,[3],36.2 ± 13%
N#CC(c1ccc(Cl)cc1)c1c(Cl)cc(-n2ncc(=O)[nH]c2=O)cc1Cl (stereo unspecified) [Diclazuril],percent Bodipy-positive cells,[2],10.9 ± 6.6%
same,percent Bodipy-positive cells,library stock concentration: 4.9 mM,10.6 ± 4.2%
same,percent Bodipy-positive cells,[1],15.9 ± 3.5%
O=c1ccc2ccc(O)c(O)c2o1 [Daphnetin],percent Bodipy-positive cells,[2],4.58 ± 2.3%
same,percent Bodipy-positive cells,[1],9.68% and 24.3%
O.O.O.O.O=C([O-])CC(O)(CC(=O)[O-])C(=O)[O-].[Li+].[Li+].[Li+] [Lithium citrate],percent Bodipy-positive cells,library stock concentration: 9.5 mM,12.09 ± 0.021%
same,percent Bodipy-positive cells,[1],25.1 ± 6.3%
Oc1ccc(Cl)c2cccnc12 [Cloxyquin],percent Bodipy-positive cells,[1],8.71 ± 1.8%
Nc1c(Br)cc(Br)cc1CN[C@H]1CC[C@H](O)CC1 [Ambroxol HCl],percent Bodipy-positive cells,[2],16.9 ± 4.6%
same,percent Bodipy-positive cells,[1],48.2 ± 4.6%
Nc1c(Br)cc(Br)cc1CN[C@H]1CC[C@H](O)CC1 [Ambroxol],percent Bodipy-positive cells,library stock concentration: 5.3 mM,19.9 ± 2.3%
Nc1c(Br)cc(Br)cc1CN[C@H]1CC[C@H](O)CC1 [Ambroxol hydrochloride],percent Bodipy-positive cells,,42.8 ± 4.4%
same,percent Bodipy-positive cells,[1],36.1% and 35.4%

# A different layout for part of the listing above:
compound | measurement | setting | value
CN1CCC(=C2c3ccccc3CC(=O)c3sccc32)CC1 [Ketotifen Fumarate] | percent Bodipy-positive cells | [2] | 29.9 ± 11%
same | percent Bodipy-positive cells | [1] | 55.2 ± 3.1%
CN1CCC(=C2c3ccccc3CC(=O)c3sccc32)CC1 | percent Bodipy-positive cells | [1] | 63.01 ± 0.44%
CN1CCC(=C2c3ccccc3CC(=O)c3sccc32)CC1 [Ketotifen fumarate] | percent Bodipy-positive cells |  | 66.425 ± 0.023%
same | percent Bodipy-positive cells | library stock concentration: 4.7 mM | 56.8 ± 12%
same | percent Bodipy-positive cells | [1] | 65.5% and 50.6%
CC(C)(C)C(=O)OCOP(=O)(COCCn1cnc2c(N)ncnc21)OCOC(=O)C(C)(C)C [Adefovir Dipivoxil] | percent Bodipy-positive cells | [2] | 22.2 ± 8.7%
same | percent Bodipy-positive cells | [1] | 38.2 ± 3.3%
O=C1Cc2c([nH]c3ccc([N+](=O)[O-])cc23)-c2ccccc2N1 [Alsterpaullone] | percent Bodipy-positive cells | [2] | 21.6 ± 1.1%
CC[C@@H](CC[C@@H](C)[C@H]1CC[C@H]2[C@@H]3CCC4C[C@@H](O)CC[C@]4(C)[C@H]3CC[C@]12C)C(C)C (stereo partly drawn) [Beta-sistosterol] | percent Bodipy-positive cells |  | 11.8 ± 0.68%
CN1CCN(c2ccc3nc(-c4c(N)c5c(F)cccc5[nH]c4=O)[nH]c3c2)CC1 [Dovitinib (TKI-258, CHIR-258)] | percent Bodipy-positive cells | [2] | 95.5 ± 1.4%
same | percent Bodipy-positive cells | [1] | 95.1 ± 1.9%
CCN(CC)CCOCCOC(=O)C(CC)(CC)c1ccccc1.O=C(O)CC(O)(CC(=O)O)C(=O)O | percent Bodipy-positive cells | [1] | 93.2 ± 1.7%
O=S(=O)(c1cccc2c(I)cccc12)N1CCCNCC1 | percent Bodipy-positive cells | library stock concentration: 80 uM | 8.74 ± 1.3%
same | percent Bodipy-positive cells | library stock concentration: 400 uM | 13 ± 4.2%
same | percent Bodipy-positive cells | library stock concentration: 2 mM | 30.4 ± 3.5%
O=S(=O)(c1cccc2c(I)cccc12)N1CCCNCC1 [ML-7, Hydrochloride] | percent Bodipy-positive cells | [2] | 37.7 ± 0.67%
COc1cc(OC)c(C(=O)CCCN2CCCC2)c(OC)c1 | percent Bodipy-positive cells | [1] | 16.2 ± 5.8%
